Reference: patent publication US20120164159A1 (OPSONA THERAPEUTICS, published 2012)
These are yes or no findings as the source states them, for the method shown. Binding calls can cover weak binding; strength is not graded here.

Assays:
[1] = biological target: porcine Toll-like Receptor 2 expressed on porcine PBMCs (pig); experiment: flow cytometry on pig PBMCs, PE anti-human IgG4
[2] = biological target: rat Toll-like Receptor 2 expressed on rat alveolar macrophages (NR8383) (rat); experiment: flow cytometry on NR8383 cells, anti-human IgG4 PE
[3] = biological target: rat Toll-like Receptor 2 expressed on rat alveolar macrophages (NR8383) (rat); experiment: flow cytometry on NR8383 cells, RPE anti-human IgG4
[4] = biological target: porcine Toll-like Receptor 2 expressed on porcine PBMCs (pig); experiment: flow cytometry on pig PBMCs, RPE anti-human IgG4

Measured: binding

B1: OPN-305 fully humanised anti-Toll-like Receptor 2 monoclonal antibody (antibody, human IgG4 S228P, kappa, V domains shown)
VH: QVQLVQSGSELKKPGASVKLSCKASGFTFTTYGINWVRQAPGQGLEWIGWIYPRDGSTNFNENFKDRATITVDTSASTAYMELSSLRSEDTAVYFCARLTGGTFLDYWGQGTTVTVSS
VL: DIVLTQSPATLSLSPGERATLSCRASESVEYYGTSLMQWYQQKPGQPPKLLIFGASNVESGVPDRFSGSGSGTDFTLKISRVEAEDVGMYFCQQSRKLPWTFGGGTKVEIKR
notes: made in NS0 cells; also called variant 21
binds: [1] | [2] | [3] | [4]
